The source of these data is publication PMC11564579.

Protein sequences, listed by entry. Tags and fused reporters are not part of them. Lines headed by an entry give the natural chain unless they say otherwise; changes in a name come on top. Residues count along the entry.
UniProt Q9P1W9: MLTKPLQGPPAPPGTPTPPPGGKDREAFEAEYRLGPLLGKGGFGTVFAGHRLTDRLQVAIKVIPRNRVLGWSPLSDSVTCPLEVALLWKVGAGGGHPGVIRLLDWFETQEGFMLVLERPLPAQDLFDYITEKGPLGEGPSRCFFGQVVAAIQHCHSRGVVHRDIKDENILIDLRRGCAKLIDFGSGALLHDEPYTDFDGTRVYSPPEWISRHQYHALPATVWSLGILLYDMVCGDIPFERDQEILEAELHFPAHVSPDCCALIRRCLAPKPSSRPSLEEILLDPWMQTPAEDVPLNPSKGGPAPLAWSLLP
UniProt O43791: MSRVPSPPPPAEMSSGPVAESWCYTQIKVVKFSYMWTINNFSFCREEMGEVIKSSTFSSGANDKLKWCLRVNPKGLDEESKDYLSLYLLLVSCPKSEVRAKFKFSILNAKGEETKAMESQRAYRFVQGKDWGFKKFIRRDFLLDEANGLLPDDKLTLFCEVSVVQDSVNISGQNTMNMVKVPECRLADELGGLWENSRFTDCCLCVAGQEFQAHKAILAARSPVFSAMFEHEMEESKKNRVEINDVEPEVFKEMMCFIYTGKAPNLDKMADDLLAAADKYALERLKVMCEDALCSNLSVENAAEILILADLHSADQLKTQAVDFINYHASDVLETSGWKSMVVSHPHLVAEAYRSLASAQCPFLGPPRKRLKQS
Speckle-type POZ protein (SPOP), wild type: residues 28-337 of O43791
UniProt P28482: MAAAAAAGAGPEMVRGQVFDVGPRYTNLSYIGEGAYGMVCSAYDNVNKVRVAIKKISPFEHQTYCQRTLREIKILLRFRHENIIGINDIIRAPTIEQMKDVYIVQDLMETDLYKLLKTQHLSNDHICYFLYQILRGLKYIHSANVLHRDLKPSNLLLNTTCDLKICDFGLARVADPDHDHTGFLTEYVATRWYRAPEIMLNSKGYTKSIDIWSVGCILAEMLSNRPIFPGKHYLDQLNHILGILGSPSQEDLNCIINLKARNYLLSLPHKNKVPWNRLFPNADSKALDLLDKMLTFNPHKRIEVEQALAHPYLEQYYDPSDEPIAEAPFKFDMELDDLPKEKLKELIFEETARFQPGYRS
UniProt P27361: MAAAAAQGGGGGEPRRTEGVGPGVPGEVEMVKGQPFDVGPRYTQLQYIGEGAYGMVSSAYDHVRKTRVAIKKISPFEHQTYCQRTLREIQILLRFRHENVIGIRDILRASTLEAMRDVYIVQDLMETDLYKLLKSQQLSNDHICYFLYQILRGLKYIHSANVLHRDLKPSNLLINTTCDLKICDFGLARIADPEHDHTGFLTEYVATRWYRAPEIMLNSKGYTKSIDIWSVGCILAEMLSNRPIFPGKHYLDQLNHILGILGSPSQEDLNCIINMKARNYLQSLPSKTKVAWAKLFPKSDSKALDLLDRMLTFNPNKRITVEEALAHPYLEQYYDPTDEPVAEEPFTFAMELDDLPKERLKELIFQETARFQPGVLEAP
UniProt P11309: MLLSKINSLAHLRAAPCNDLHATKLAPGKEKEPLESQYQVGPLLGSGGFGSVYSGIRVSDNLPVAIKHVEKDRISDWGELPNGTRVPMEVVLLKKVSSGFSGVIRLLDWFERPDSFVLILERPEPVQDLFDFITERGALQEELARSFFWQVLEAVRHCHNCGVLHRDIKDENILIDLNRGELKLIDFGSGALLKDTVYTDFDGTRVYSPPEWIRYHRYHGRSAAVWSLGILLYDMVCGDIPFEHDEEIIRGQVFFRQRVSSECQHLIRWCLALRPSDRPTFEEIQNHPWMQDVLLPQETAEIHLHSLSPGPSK
UniProt Q9Y572: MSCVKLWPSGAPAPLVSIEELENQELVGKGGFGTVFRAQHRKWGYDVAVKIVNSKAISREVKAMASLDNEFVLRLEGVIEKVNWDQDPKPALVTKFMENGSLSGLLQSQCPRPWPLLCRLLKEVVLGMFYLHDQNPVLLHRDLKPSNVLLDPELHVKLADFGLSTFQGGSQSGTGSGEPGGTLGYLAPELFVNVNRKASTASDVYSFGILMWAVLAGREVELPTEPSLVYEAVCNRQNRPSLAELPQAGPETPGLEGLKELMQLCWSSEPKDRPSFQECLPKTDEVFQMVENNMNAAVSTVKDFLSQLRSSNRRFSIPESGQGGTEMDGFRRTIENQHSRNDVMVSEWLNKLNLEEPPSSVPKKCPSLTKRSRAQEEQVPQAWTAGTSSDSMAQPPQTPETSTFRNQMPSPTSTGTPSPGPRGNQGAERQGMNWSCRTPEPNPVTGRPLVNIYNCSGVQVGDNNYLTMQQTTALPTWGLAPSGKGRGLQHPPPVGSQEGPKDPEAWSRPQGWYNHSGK
UniProt Q13546: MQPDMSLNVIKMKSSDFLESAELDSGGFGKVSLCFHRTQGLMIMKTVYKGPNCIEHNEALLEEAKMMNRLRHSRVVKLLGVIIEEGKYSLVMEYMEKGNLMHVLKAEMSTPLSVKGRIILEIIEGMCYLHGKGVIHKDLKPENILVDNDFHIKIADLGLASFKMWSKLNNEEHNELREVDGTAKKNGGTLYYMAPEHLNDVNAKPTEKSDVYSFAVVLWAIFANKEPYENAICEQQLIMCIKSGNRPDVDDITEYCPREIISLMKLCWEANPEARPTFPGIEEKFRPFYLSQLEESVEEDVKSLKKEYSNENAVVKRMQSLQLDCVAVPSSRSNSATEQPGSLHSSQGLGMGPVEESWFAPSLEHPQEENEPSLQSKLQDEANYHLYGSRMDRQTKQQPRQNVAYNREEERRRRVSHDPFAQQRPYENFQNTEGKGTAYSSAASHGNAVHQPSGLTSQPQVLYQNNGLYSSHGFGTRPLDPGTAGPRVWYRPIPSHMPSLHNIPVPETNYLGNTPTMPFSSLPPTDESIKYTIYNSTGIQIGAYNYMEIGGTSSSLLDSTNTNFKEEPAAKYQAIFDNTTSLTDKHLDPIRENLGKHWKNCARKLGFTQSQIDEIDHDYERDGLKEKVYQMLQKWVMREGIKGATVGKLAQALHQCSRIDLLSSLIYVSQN

No constants are given. Whether binding was seen depends on the method and setting. Binding seen in cells or lysates may run through a third protein. Some entries that bind do so weakly or less than the wild type.

One test has as its target PIM2 (UniProt Q9P1W9). Put plainly: co-IP; HEK293T lysates (300-400 µg) expressing tag-fusion proteins; overnight at 4 °C with protein G-Sepharose and 2 µg antibody; wash 20 mM Tris pH 8.0, 100 mM NaCl, 1 mM EDTA, 0.5% NP-40; western blot; for RIPK3-SPOP also lysates treated with λ protein phosphatase (interaction reduced) and cells treated with GF109203X, CHIR99021 or AZD8055 (interaction not lost). In general terms: A western blot detects proteins with antibodies after separation by electrophoresis.

Test [1] has as its target SPOP, endogenous in HT-29 cells (human (endogenous in HT-29)) (UniProt O43791). Put plainly: co-IP; endogenous proteins; 1 mg HT-29 lysate with 5 µg pre-immune or SPOP antibody, overnight; western blot.
Test [2] concerns the target Speckle-type POZ protein (SPOP), wild type (UniProt O43791). Put plainly: condition: only cells treated with AZD1208 (pan-PIM inhibitor); co-IP; HEK293T cells treated with AZD1208 (pan-PIM inhibitor); IP and western blot.
Test [3] shares this target. Put plainly: condition: only cells treated with U0126 (MEK/ERK inhibitor); co-IP; HEK293T cells treated with U0126 (MEK/ERK inhibitor); IP and western blot.
Another test deals with ERK2 (UniProt P28482). Put plainly: co-IP; HEK293T lysates (300-400 µg) expressing tag-fusion proteins; overnight at 4 °C with protein G-Sepharose and 2 µg antibody; wash 20 mM Tris pH 8.0, 100 mM NaCl, 1 mM EDTA, 0.5% NP-40; western blot; for RIPK3-SPOP also lysates treated with λ protein phosphatase (interaction reduced) and cells treated with GF109203X, CHIR99021 or AZD8055 (interaction not lost).

Another test addresses T1, KLHL2 (UniProt O95198).
T1 sequence: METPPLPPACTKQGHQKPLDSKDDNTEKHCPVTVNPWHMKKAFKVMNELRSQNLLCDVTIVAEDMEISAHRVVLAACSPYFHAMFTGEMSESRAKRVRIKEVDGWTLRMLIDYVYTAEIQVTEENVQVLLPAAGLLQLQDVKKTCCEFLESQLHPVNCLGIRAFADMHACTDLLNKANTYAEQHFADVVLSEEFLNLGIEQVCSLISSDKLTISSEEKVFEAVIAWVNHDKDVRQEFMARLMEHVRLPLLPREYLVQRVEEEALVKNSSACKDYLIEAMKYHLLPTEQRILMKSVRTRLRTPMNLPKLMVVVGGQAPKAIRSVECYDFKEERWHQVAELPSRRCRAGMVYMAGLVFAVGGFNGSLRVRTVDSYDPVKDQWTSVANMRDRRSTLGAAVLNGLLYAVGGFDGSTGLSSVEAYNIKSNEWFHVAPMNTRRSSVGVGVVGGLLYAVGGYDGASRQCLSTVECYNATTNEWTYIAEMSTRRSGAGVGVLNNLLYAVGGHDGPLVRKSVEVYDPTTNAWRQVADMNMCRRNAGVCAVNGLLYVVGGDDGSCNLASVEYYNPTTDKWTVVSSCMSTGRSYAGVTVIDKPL
The test is described as above.

The next test addresses ERK1 (UniProt P27361). The test is described as above.
In a further test the target is PIM1 (UniProt P11309). The test is described as above.
For test [4], the target named is Speckle-type POZ protein (SPOP), wild type (UniProt O43791). The test is described as above.

As to RIPK3-T403A (from UniProt Q9Y572 1-518), the binding entry with PIM2 is reported as “no binding”.
Regarding “RIPK3, endogenous in HT-29 cells (from UniProt Q9Y572 1-518)”, in test [1], the binding result is “binds”.
For the substance “receptor-interacting serine/threonine kinase 3 (RIPK3), wild type (from UniProt Q9Y572 1-518)”, the binding result in test [2] is reported as “no binding”; in test [3] it was “no binding”; with ERK2 it was “binds”; with KLHL2, “binds weakly”; in the test with ERK1, “no binding”; in the test with PIM1 it was “no binding”. In addition, the binding entry (in test [4]; with PIM2) was “binds” in each case.
Consider “receptor-interacting serine/threonine kinase 1 (RIPK1) (from UniProt Q13546 1-671)”, for which the binding entry in test [4] is listed as “no binding”.
